Read-outs that look alike come from different tables or passages of the source. Results are given in words; binding and its absence hold for the method and conditions named.
T1: TCP5 (Arabidopsis thaliana) (UniProt Q9FME3)
T1 sequence: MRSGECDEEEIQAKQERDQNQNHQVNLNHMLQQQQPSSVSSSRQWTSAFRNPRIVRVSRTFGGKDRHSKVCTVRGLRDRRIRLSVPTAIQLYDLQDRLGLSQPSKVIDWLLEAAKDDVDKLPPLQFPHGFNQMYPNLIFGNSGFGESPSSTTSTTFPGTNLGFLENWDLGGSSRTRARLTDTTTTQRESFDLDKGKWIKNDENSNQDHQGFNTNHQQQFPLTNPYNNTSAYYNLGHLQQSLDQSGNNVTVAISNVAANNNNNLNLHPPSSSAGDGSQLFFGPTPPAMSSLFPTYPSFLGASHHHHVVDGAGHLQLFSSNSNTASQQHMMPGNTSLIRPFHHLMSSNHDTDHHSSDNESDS

Chains of the proteins cited; added tags and fusions are not shown.
UniProt Q9C518: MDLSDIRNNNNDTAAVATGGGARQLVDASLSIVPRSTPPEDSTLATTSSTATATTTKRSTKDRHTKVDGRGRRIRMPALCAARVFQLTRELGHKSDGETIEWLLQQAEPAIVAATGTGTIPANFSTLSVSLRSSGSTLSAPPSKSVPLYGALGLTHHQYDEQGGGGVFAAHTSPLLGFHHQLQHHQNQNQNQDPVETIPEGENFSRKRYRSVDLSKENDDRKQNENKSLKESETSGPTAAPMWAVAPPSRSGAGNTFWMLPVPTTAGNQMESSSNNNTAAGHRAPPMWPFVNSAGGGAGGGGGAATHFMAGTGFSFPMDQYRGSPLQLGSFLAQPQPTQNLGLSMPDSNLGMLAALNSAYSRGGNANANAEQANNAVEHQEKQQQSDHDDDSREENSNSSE
UniProt O64647: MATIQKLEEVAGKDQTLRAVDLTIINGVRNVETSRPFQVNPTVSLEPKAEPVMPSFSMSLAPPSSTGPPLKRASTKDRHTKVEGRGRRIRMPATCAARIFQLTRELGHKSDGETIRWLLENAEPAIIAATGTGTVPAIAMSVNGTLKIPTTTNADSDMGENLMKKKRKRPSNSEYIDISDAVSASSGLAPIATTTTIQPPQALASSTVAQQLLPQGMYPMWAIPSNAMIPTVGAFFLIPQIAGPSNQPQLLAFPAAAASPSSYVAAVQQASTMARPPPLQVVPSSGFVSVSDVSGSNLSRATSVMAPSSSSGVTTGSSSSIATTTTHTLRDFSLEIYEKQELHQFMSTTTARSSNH
UniProt Q9C7G4: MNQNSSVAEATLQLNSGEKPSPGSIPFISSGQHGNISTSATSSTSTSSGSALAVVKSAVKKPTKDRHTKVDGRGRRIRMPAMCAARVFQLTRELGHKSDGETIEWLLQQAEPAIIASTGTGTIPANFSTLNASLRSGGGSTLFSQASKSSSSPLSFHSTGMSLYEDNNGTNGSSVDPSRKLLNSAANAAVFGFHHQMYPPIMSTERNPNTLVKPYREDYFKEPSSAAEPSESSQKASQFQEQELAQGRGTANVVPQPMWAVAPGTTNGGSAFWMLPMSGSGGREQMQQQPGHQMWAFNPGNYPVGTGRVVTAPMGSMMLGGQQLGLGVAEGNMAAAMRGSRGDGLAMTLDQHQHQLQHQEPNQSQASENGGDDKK
UniProt Q93Z00: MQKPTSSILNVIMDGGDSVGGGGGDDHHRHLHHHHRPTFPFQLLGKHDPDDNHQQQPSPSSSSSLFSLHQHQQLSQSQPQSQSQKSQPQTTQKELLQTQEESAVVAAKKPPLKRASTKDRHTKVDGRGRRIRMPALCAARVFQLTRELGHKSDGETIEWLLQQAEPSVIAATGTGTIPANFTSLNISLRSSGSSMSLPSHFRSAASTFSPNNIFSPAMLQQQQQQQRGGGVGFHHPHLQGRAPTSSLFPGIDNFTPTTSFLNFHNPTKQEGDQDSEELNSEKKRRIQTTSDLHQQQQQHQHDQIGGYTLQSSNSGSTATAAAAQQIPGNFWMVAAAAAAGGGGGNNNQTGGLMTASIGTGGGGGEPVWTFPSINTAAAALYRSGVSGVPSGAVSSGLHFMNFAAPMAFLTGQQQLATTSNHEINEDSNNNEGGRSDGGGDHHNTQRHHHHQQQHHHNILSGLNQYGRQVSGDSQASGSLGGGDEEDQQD
UniProt Q9LQF0: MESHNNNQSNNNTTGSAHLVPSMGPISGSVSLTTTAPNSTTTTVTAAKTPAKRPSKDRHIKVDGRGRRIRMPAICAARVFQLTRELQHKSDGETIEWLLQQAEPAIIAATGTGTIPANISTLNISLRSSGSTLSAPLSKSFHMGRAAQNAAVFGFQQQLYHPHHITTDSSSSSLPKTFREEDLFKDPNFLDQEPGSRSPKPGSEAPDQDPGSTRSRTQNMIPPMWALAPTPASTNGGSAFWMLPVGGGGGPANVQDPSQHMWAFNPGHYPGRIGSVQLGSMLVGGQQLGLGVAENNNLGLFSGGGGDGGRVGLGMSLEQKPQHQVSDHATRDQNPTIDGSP
UniProt Q9FMX2: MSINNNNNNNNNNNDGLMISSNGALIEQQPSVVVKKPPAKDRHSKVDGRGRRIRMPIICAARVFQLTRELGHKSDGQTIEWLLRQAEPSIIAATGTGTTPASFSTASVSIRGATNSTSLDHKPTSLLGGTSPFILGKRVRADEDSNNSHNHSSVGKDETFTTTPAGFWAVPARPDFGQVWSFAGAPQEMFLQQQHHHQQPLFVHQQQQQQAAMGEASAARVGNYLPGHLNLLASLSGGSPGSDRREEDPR
UniProt Q9FTA2: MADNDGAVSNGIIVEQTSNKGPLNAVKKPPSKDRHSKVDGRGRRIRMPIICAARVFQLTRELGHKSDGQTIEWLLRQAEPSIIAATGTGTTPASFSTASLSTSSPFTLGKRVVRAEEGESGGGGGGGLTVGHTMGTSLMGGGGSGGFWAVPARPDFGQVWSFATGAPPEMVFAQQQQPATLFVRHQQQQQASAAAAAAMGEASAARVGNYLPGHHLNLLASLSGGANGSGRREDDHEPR

T2: TCP19 (Arabidopsis thaliana) (UniProt Q9LT89)
T2 sequence: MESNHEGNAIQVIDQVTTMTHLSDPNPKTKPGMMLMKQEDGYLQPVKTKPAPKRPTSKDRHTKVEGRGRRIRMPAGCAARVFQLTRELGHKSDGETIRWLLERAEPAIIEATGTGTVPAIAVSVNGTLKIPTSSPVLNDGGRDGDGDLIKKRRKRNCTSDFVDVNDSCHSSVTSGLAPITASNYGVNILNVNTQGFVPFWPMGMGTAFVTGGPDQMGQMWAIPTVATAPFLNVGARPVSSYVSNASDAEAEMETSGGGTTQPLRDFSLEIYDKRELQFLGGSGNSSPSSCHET


What was measured:
Test in all cases: two-hybrid; matrix-based GAL4 yeast two-hybrid by mating (baits in PJ69-4alpha, preys in PJ69-4a); selection on SD-Leu-Trp-Ade or SD-Leu-Trp-His with 5 and 10 mM 3-amino-1,2,4-triazole; scored after 5 days at 30 °C; BD baits of TCP1, 2, 4, 10, 12, 18, 20 and 24 excluded for auto-activation; positive only if reproducible with at least two selection markers
[1] = molecular target: TCP8 (Arabidopsis thaliana) (UniProt Q9C518)
[2] = molecular target: TCP9 (Arabidopsis thaliana) (UniProt O64647)
[3] = molecular target: TCP22 (Arabidopsis thaliana) (UniProt Q9C7G4)
[4] = molecular target: TCP14 (Arabidopsis thaliana) (UniProt Q93Z00)
[5] = molecular target: TCP23 (Arabidopsis thaliana) (UniProt Q9LQF0)
[6] = molecular target: T1, TCP5 (Arabidopsis thaliana)
[7] = molecular target: T2, TCP19 (Arabidopsis thaliana)
[8] = molecular target: TCP7 (Arabidopsis thaliana) (UniProt Q9FMX2)
[9] = molecular target: TCP21 (Arabidopsis thaliana) (UniProt Q9FTA2)
[10] = molecular target: TCP8 (Arabidopsis thaliana) (UniProt Q9C518); remark: listed apart in the source

| binding [1] | binding [2] | binding [3] | binding [4] | binding [5] | binding [6] | binding [7] | binding [8] | binding [9] | binding [10] | Molecule |
| --- | --- | --- | --- | --- | --- | --- | --- | --- | --- | --- |
| no binding |  |  |  |  |  |  |  |  |  | TCP9 (from UniProt O64647 1-356) |
|  | no binding | no binding | no binding | no binding | no binding | no binding | no binding | no binding | no binding | TCP18 (protein, UniProt A1YKT1 1-433) MNNNIFSTTTTINDDYMLFPYNDHYSSQPLLPFSPSSSINDILIHSTSNTSNNHLDHHHQFQQPSPFSHFEFAPDCALLTSFHPENNGHDDNQTIPNDNHHPSLHFPLNNTIVEQPTEPSETINLIEDSQRISTSQDPKMKKAKKPSRTDRHSKIKTAKGTRDRRMRLSLDVAKELFGLQDMLGFDKASKTVEWLLTQAKPEIIKIATTLSHHGCFSSGDESHIRPVLGSMDTSSDLCELASMWTVDDRGSNTNTTETRGNKVDGRSMRGKRKRPEPRTPILKKLSKEERAKARERAKGRTMEKMMMKMKGRSQLVKVVEEDAHDHGEIIKNNNRSQVNRSSFEMTHCEDKIEELCKNDRFAVCNEFIMNKKDHISNESYDLVNYKPNSSFPVINHHRSQGAANSIEQHQFTDLHYSFGAKPRDLMHNYQNMY |
|  | no binding | no binding | no binding | no binding | no binding | no binding | no binding | no binding | no binding | TCP1 (protein, UniProt Q9FYG7 1-359) MSSSTNDYNDGNNNGVYPLSLYLSSLSGHQDIIHNPYNHQLKASPGHMVSAVPESLIDYMAFKSNNVVNQQGFEFPEVSKEIKKVVKKDRHSKIQTAQGIRDRRVRLSIGIARQFFDLQDMLGFDKASKTLDWLLKKSRKAIKEVVQAKNLNNDDEDFGNIGGDVEQEEEKEEDDNGDKSFVYGLSPGYGEEEVVCEATKAGIRKKKSELRNISSKGLGAKARGKAKERTKEMMAYDNPETASDITQSEIMDPFKRSIVFNEGEDMTHLFYKEPIEEFDNQESILTNMTLPTKMGQSYNQNNGILMLVDQSSSSNYNTFLPQNLDYSYDQNPFHDQTLYVVTDKNFPKGKVWIQDSFVN |
|  | no binding | no binding | no binding | no binding | no binding | no binding | no binding | no binding | no binding | TCP12 (protein, UniProt A0AQW4 1-356) MFPSLDTNGYDLFDPFIPHQTTMFPSFITHIQSPNSHHHYSSPSFPFSSDFLESFDESFLINQFLLQQQDVAANVVESPWKFCKKLELKKKNEKCVDGSTSQEVQWRRTVKKRDRHSKICTAQGPRDRRMRLSLQIARKFFDLQDMLGFDKASKTIEWLFSKSKTSIKQLKERVAASEGGGKDEHLQVDEKEKDETLKLRVSKRRTKTMESSFKTKESRERARKRARERTMAKMKMRLFETSETISDPHQETREIKITNGVQLLEKENKEQEWSNTNDVHMVEYQMDSVSIIEKFLGLTSDSSSSSIFGDSEECYTSLSSVRGMSTPREHNTTSIATVDEEKSPISSFSLYDYLCY |
